Measurements reported in PubChem BioAssay AID1259308 (NCATS, 2017).

Assay: 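Candidate targets for better recombinant protein yield in mammalian cells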 (primary screen)
System: human HEK293 embryonic kidney cells stably expressing firefly luciferase (HEK-CMV-Luc2-Hygro)
Reagents: single siRNA against human genes, 0.8 pmol siRNA per well
Duration: 72 h
Read-out: 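Reporter luminescence and viable-cell signal on separate replicate plates, given as percent of non-targeting control and median/MAD z-scores, plus per-cell luciferase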
Direction: total luciferase, z-score: higher = more reporter protein produced
Hit rule: 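Active when the median/MAD z-score for overall luciferase is greater than 3; a gene was taken forward for validation with new siRNAs if at least two of its three siRNAs passed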
Meaning of the calls: active = raised luciferase; inactive = no rise
This is an unselected part of about 59,000 reagents. Of all reagents, about 1,510 (2.6%) were called active. 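Calls use total luciferase alone and ignore viability, so some active siRNAs may act by altering cell number.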 Reagents against one gene are numbered here. Further read-outs or replicates are left out here.

NXPH2 #1 → total luciferase, z-score = -0.573; activity call = inactive
NXPH2 #2 → total luciferase, z-score = 1.12; activity call = inactive
NXPH2 #3 → total luciferase, z-score = 0.116; activity call = inactive
CHL1-AS2 #1 → total luciferase, z-score = -2.02; activity call = inactive
CHL1-AS2 #2 → total luciferase, z-score = 0.551; activity call = inactive
CHL1-AS2 #3 → total luciferase, z-score = -1.26; activity call = inactive
SLC5A11 #1 → total luciferase, z-score = 1.94; activity call = inactive
SLC5A11 #2 → total luciferase, z-score = -0.951; activity call = inactive
SLC5A11 #3 → total luciferase, z-score = -0.227; activity call = inactive
KDM8 #1 → total luciferase, z-score = 0.132; activity call = inactive
KDM8 #2 → total luciferase, z-score = 1.62; activity call = inactive
KDM8 #3 → total luciferase, z-score = 0.137; activity call = inactive
RFESD #1 → total luciferase, z-score = -0.136; activity call = inactive
RFESD #2 → total luciferase, z-score = -0.409; activity call = inactive
RFESD #3 → total luciferase, z-score = -0.959; activity call = inactive
MGAT5B #1 → total luciferase, z-score = -0.182; activity call = inactive
MGAT5B #2 → total luciferase, z-score = 0.296; activity call = inactive
MGAT5B #3 → total luciferase, z-score = 0.00312; activity call = inactive
VAX2 #1 → total luciferase, z-score = -0.261; activity call = inactive
VAX2 #2 → total luciferase, z-score = 1.19; activity call = inactive
VAX2 #3 → total luciferase, z-score = -0.572; activity call = inactive
YJEFN3 #1 → total luciferase, z-score = -1.18; activity call = inactive
YJEFN3 #2 → total luciferase, z-score = -2.64; activity call = inactive
YJEFN3 #3 → total luciferase, z-score = -0.133; activity call = inactive
FOXN3-AS1 #1 → total luciferase, z-score = -0.415; activity call = inactive
FOXN3-AS1 #2 → total luciferase, z-score = -0.0107; activity call = inactive
FOXN3-AS1 #3 → total luciferase, z-score = -0.284; activity call = inactive
TSPY3 #1 → total luciferase, z-score = 0.175; activity call = inactive
TSPY3 #2 → total luciferase, z-score = 2.59; activity call = inactive
TSPY3 #3 → total luciferase, z-score = 0.695; activity call = inactive
LRRC74B #1 → total luciferase, z-score = -1.31; activity call = inactive
LRRC74B #2 → total luciferase, z-score = -0.225; activity call = inactive
LRRC74B #3 → total luciferase, z-score = 0.603; activity call = inactive
ASB1 #1 → total luciferase, z-score = -0.925; activity call = inactive
ASB1 #2 → total luciferase, z-score = -0.562; activity call = inactive
ASB1 #3 → total luciferase, z-score = -0.021; activity call = inactive
UBQLN4 #1 → total luciferase, z-score = 0.536; activity call = inactive
UBQLN4 #2 → total luciferase, z-score = 1.35; activity call = inactive
UBQLN4 #3 → total luciferase, z-score = -0.589; activity call = inactive
CSF1 #1 → total luciferase, z-score = -1.48; activity call = inactive
CSF1 #2 → total luciferase, z-score = 0.445; activity call = inactive
CSF1 #3 → total luciferase, z-score = 1.5; activity call = inactive

Sorted by “total luciferase, z-score” (high to low): some entries from above
TSPY3 #2 → total luciferase, z-score = 2.59; activity call = inactive
TSPY3 #3 → total luciferase, z-score = 0.695; activity call = inactive
LRRC74B #3 → total luciferase, z-score = 0.603; activity call = inactive
TSPY3 #1 → total luciferase, z-score = 0.175; activity call = inactive
LRRC74B #2 → total luciferase, z-score = -0.225; activity call = inactive
FOXN3-AS1 #3 → total luciferase, z-score = -0.284; activity call = inactive
LRRC74B #1 → total luciferase, z-score = -1.31; activity call = inactive
